According to PMC9350836:
These are yes or no findings as the source states them, for the method shown. Values belong to the binder of their own block, whether it stands above or below them.

How the values were obtained:
[1] = target: glutamyl-tRNA synthetase from Elizabethkingia anopheles (Elizabethkingia anopheles NUHP1); assay: SEC; Superdex 75; running buffer 25 mM HEPES pH 7.0, 500 mM NaCl, 5% glycerol, 2 mM DTT, 0.025% sodium azide; protein after Ni-NTA IMAC; both purified
[2] = target: glutamyl-tRNA synthetase from Elizabethkingia meningosepticum (Elizabethkingia meningosepticum CCUG 26117); assay: as above

binding [1]: no binding
B1: glutamyl-tRNA synthetase from Elizabethkingia anopheles (enzyme)
chain: MEKVRVRFAPSPTGPLHLGGVRTALYDYLFAKHNGGDFILRIEDTDTQRYVPGSEEYIMEALEWIGMVPDESPKHGGPYAPYRQSERRDIYDRYTEQILKTDYAYLAFDTPEELDQIRAEFEARGDVFAYNYETRNRLRNSISLPEEEVKKLLEEKTPYVIRFKMPLDRIINLNDIIRGKFSVNTNTLDDKVLVKNDGMPTYHFANIIDDHEMKITHVIRGEEWLPSMALHVLLYEAMGWDAPEFAHLSLILKPEGKGKLSKRDGDKFGFPVFPLNFTDPATGNTSAGYREEGYLPEAFINMVAMLGWSPADNKEIVSMDEMIKEFDLNKVHKAGARFSAEKAKWFNQQYLQLMSNEAILPEFKKVLAENNVEVSDEKALKIIGLMKERATFVKDIYNDGKFFFHAPESFDEKASKKAWSPETAVLMQELTEAISSLDFKAEIIKESIHHLAEAKGLGMGKVMMPLRLSLVGELKGPDVPDLMEMIGKEETISRINKAIETLK

binding [2]: no binding
B2: glutamyl-tRNA synthetase from Elizabethkingia meningosepticum (enzyme)
chain: MEKVRVRFAPSPTGPLHLGGVRTALYDYLFAKHNGGDFILRIEDTDTQRYVPGSEEYIMEALEWIGMIPDESPKHGGPYAPYRQSERRAIYDKYTEQILKTDYAYLAFDTPEELDQIRAEYEAKGDVFAYNYETRHRLRNSISLPEDEVKKLLDEKTPYVIRFKMPLDRIINLNDIIRGKFSVNTNTLDDKVLVKNDGMPTYHFANIIDDHEMKITHVIRGEEWLPSMALHVLLYEAMEWNAPEFAHLSLILKPEGKGKLSKRDGDKFGFPVFPLNFTDPATGNTSAGYREEGYLPEAFINMVAMLGWSPADNKEIISMDEMIKEFDLHKVHKAGARFSAEKAKWFNQQYLQMMSNEAILPEFKTILSNNSIEISDEKALRIIGLMKERATFIKDIYNDGKFFFHAPESYDEKAAKKAWSPETAALMQEVNNAITTVDFKADTIKESLHHLTEEKGLGMGKVMMPLRLSLVGELKGPDVPELMEIIGKEESVSRITKAIETLK
